At least one structure is not confirmed: it was looked up by name or label, or the drawing left a doubt.
Test system: IDO protein
Test: Inhibitory effect on IDO protein expression, Western blotting
Type: cell-based
Settings: human stomach cancer line NCI-N87; IFNγ 100 U/mL; 0.001, 0.01, 0.1 and 1 μM; 24 hours; FIG. 1
Procedure: Protein expression was detected by a Western blotting method. A human stomach cancer line NCI-N87 (CRL-5822) was purchased from American Type Culture Collection (ATCC). The cells were cultured in RPMI1640 (Wako Pure Chemical Industries, Ltd.) medium supplemented with 10% fetal bovine serum (FBS). The cells were seeded in a 6-well plate (#140675, Nunc) at 1×10^6 cells per well. The cells were cultured in a 5% CO2 incubator at 37° C. for 24 hours, INFγ (PeproTech, Inc.) at 100 U/mL and test substances [tanespimycin (Biotrend), ganetespib, BIIBO21 and Compound 1] in amounts of 0.001 μM, 0.01 μM, 0.1 μM and 1 μM each were then added, and the cells were further cultured for 24 hours. After the culturing, the cells were washed with ice-cooled PBS, and the cells were then lysed with a cytolytic agent. […]
After completion of SDS-PAGE, the protein was transferred to a PVDF membrane (Trans-Blot Turbo Midi PVDF Transfer Pack, Biorad) by using a blotting device (Trans-Blot Turbo Transfer System, Biorad). […] The PVDF membrane was washed three times with the washing solution, and then immersed in SuperSignal West Pico Chemiluminescent Substrate (Thermo Scientific) for detection of GAPDH, or SuperSignal West Dura Extended Duration Substrate (Thermo Scientific) for detection of IDO, and chemiluminescence was detected by using Image Analyzer Amersham Imager 600QC (GE Healthcare Japan Corporation).

Compound: C=CCNC1=C2C[C@@H](C)C[C@H](OC)[C@H](O)[C@@H](C)/C=C(\C)[C@H](OC(N)=O)[C@@H](OC)/C=C\C=C(/C)C(=O)NC(=CC1=O)C2=O [tanespimycin]
- inhibitory effect on IDO expression: inhibitory effect on IDO expression in a concentration-dependent manner

From patent publication US20200281904A1, “PROPHYLACTIC AND/OR THERAPEUTIC AGENT FOR DISEASES INVOLVING IDO EXPRESSION” (TAIHO PHARMACEUTICAL CO., LTD., priority 2017, published 2020)
